Measurements from “University of Dundee, Small-Polar-MMV Screening Library” (2021), ChEMBL document CHEMBL3988442.

By UniProt entry, the sequences of proteins in these tests, tags left out. Residues count along the entry.
UniProt Q4DA54, 1-478: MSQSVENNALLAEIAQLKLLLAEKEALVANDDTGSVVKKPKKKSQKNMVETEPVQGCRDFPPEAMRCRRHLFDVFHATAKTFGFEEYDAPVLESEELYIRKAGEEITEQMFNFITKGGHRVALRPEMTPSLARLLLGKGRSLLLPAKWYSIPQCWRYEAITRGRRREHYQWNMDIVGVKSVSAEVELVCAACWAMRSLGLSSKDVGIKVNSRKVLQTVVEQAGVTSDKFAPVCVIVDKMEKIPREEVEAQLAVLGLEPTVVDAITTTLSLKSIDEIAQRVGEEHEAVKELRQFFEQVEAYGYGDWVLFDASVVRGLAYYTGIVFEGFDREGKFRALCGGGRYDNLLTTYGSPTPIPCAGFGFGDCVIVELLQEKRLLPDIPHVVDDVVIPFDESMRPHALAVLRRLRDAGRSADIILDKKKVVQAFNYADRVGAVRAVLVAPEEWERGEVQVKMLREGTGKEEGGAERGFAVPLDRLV
UniProt P9WNZ1, whole entry: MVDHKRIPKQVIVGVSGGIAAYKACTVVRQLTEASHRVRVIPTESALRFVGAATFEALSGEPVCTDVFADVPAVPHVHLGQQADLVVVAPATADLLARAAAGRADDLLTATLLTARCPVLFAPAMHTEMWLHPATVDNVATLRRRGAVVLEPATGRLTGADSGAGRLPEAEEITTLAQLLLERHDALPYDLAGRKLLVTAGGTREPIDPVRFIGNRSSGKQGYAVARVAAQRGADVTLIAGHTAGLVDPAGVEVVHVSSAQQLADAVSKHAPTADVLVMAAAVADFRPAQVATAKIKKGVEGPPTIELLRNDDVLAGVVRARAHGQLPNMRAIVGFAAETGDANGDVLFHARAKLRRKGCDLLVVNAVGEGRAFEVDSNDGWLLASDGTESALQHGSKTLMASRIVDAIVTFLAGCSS
UniProt A4I591, 1-473: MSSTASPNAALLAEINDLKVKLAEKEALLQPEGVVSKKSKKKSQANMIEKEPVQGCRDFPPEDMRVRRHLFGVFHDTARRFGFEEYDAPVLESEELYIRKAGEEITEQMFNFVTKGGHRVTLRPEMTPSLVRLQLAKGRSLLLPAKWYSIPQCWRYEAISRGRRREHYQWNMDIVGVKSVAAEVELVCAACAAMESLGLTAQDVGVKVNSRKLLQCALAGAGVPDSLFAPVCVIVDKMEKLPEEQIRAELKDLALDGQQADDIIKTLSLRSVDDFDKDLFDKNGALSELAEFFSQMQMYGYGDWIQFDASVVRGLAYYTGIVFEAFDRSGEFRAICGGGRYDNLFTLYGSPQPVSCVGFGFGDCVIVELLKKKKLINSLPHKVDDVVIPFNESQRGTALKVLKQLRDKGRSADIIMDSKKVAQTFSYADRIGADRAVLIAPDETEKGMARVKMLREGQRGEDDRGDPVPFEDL

Values are the deposited “Percent Effect”, in %.
The controls that fix the scale are not given in the record; negative values are as filed.
This is an unselected part of the compounds tested.
Two or more numbers in one place are separate tests of the same structure; such repeats can differ widely.

A: 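Histidine-tRNA ligase, Trypanosoma cruzi CL Brener (UniProt Q4DA54). Enzyme assay of histidyl-tRNA synthetase; the read-out is not stated. Tested at 30 µM. Direction is inferred from retests: higher values go with stronger inhibition. Of about 69,000 compounds tested this way, about 31 (0.045%) reached 50% or more in at least one test.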
B: 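Cell assay of Leishmania donovani living inside macrophages; the read-out is not stated. Compounds at 30 µM. Higher reads as stronger inhibition (inferred: compounds with an IC50 in retests scored well above the rest). About 69,000 compounds were tested under these conditions; 1.5% (about 1,000) showed 50% or more at least once.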
C: 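Assay of Toxoplasma gondii numbers, read through their beta-galactosidase reporter with a colour substrate. Tested at 10 µM. The record gives no direction; the compounds picked for IC50 retests had high values, so higher reads as fewer parasites. Of about 67,000 compounds tested this way, about 260 (0.38%) reached 50% or more in at least one test.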
D: 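Coenzyme A biosynthesis protein CoaBC, Mycobacterium tuberculosis (UniProt P9WNZ1). Enzyme assay of CoaBC with a phosphate dye (Biomol Green) read at 650 nm. Concentration: 30 µM. Higher reads as stronger inhibition, judged from the few compounds that gave an IC50. Most strong results did not repeat in a second test. Size under these conditions: about 67,000 compounds, about 40 of them at 50% or above in at least one test.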
E: 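Enzyme assay of histidyl-tRNA synthetase; the read-out is not stated. Target: Histidine-tRNA ligase, Leishmania infantum (UniProt A4I591). Compounds at 30 µM. The record gives no direction; compounds that gave an IC50 in retests scored well above the rest, so higher reads as stronger inhibition. The assay is labelled LdHisRS but filed under L. infantum. About 69,000 compounds were tested under these conditions; 0.6% (about 410) showed 50% or more at least once.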

- Cc1ccc(-c2n[nH]cc2CNCC2CCN(CC(C)O)CC2)cc1 (stereo not drawn) | A: 3.725%; B: 11.93%; C: -35.56%; D: 2.609%; E: 15.79%
- OCCN1CCCC(c2nccnc2Oc2ccccc2)C1 (stereo not drawn) | A: 4.494%; B: 12.02%; C: -18.11%; D: 8.055%; E: 20%
- CC(C)(C)C(=O)N1C[C@@H](F)[C@@H](OCc2nc3ccccc3o2)C1 | A: 4.348%; B: 13.31%; C: 8.383%; D: 2.428%; E: 22.97%
- C=C(C)COc1ccccc1C(=O)NCCc1cc(O)nc(C)n1 | A: 4.721%; B: -2.246%; C: 3.806%; D: 2.273%; E: 13.11%
- CN1CCCc2cc(-c3cncn3CC(=O)NC(C)(C)C)ccc21 | A: 9.886%; D: 6.304%; E: 28.28%
- COC(C)c1cccc(NCc2cccc(O)c2)c1 (stereo not drawn) | A: -1.02%; B: 27.04%; C: -0.141%; D: -7.127%; E: 2.857%
- CCOc1ncccc1NC(=O)c1ccc(C(C)=O)s1 | A: 6.696%; B: 17.05%; C: -4.394%; D: 2.041%; E: 25.93%
- CC1N(c2cnn(C)c2)C(=O)COC12CCN(c1ncccn1)CC2.O=C(O)C(F)(F)F (stereo not drawn) | B: 17.07%; C: 1.416%
- Cn1ncc(N2CCOC(CCNC(=O)N3CCCCC3)C2)cc1=O (stereo not drawn) | A: 5.051%; B: -14.14%; C: -2.45%; D: 5.387%; E: 13.83%
- Cc1cc(C(=O)N2CCN(CC(O)Cn3cccn3)CC2)c(C)o1 (stereo not drawn) | A: 4.372%; B: -250.2%; C: -2.957%; D: 10.51%; E: 24.66%
- O=C(CCCc1ccccn1)Nc1cccc(N2CCCNC2=O)c1 | A: 4.167%; B: 3.652%; C: 2.389%; D: 5.754%; E: 16.67%
- Cc1noc(C2CN(CC(=O)NCC3CCCO3)C2)n1 (stereo not drawn) | A: 2.062%; B: 10.26% & -0.04941%; C: 0.6435%; D: 2.748%; E: 19.13%
- CC1=Nc2c(c(=O)[nH]n2C(C)C)C(c2ccccc2)S1 (stereo not drawn) | A: -2.732%; B: 30.2%; C: -1.793%; D: 4.441%; E: 36.89%
- COc1ncccc1CNC(=O)N(Cc1ccc(F)cc1F)C1CC1 | A: -3.509%; B: 12.84%; C: 0.6063%; D: 4.847%; E: 5.455%
- CCN(C(=O)C1CC1)C(c1cccnc1)c1ccc2c(c1)CCO2 (stereo not drawn) | A: 1.02%; B: 0.7809%; C: 7.659%; D: 0.8485%; E: 8.065%
- c1cncc(-c2nnn3c2COCC(CNC2CCOCC2)C3)c1 (stereo not drawn) | A: 10.92%; D: 5.882%; E: 13.76%
- Cc1cccc(-c2noc([C@@H]3C[C@@H](O)CN3C)n2)c1 | A: -2.488%; B: 6.276%; C: -1.724%; D: 3.548%; E: 11.11%

2 of the entries, repeated:

compound,A,B,C,D,E
Cn1ncc(N2CCOC(CCNC(=O)N3CCCCC3)C2)cc1=O (stereo not drawn),5.051,-14.14,-2.45,5.387,13.83
CCN(C(=O)C1CC1)C(c1cccnc1)c1ccc2c(c1)CCO2 (stereo not drawn),1.02,0.7809,7.659,0.8485,8.065